Publication doi:10.1101/556266
Results are given in words; binding and its absence hold for the method and conditions named. In cells and extracts the contact can be indirect. Some results given as binding are weak or reduced against the parent protein; the word gives no strength. For part of these data: Sequences can lack the tags named with a protein.

Amino acid sequences for entries named in this document (tags omitted). A change or cut given only in a name is not applied to a line headed by its entry. Residues count along the entry.
UniProt Q63604, residues 32-821: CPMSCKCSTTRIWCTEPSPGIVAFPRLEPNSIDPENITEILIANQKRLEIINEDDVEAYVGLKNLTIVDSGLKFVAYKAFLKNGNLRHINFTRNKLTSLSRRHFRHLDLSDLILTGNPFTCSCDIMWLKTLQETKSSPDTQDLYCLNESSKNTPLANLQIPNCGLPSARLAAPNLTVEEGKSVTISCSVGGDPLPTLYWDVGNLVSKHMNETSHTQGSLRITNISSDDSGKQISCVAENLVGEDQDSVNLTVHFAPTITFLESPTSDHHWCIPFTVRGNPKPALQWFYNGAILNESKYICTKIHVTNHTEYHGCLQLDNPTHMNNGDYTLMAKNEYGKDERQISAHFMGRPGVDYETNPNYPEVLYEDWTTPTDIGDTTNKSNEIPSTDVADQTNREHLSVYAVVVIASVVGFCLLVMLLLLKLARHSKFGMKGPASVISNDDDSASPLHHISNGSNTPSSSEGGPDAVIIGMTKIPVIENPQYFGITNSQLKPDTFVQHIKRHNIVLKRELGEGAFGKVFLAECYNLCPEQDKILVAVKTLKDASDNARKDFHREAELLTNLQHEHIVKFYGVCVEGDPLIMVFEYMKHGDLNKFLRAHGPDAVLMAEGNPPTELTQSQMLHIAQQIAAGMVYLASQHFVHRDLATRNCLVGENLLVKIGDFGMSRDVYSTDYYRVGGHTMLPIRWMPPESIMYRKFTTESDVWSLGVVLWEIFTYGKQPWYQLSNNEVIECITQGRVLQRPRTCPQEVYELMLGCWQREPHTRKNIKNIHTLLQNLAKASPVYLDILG
UniProt Q5JCS6: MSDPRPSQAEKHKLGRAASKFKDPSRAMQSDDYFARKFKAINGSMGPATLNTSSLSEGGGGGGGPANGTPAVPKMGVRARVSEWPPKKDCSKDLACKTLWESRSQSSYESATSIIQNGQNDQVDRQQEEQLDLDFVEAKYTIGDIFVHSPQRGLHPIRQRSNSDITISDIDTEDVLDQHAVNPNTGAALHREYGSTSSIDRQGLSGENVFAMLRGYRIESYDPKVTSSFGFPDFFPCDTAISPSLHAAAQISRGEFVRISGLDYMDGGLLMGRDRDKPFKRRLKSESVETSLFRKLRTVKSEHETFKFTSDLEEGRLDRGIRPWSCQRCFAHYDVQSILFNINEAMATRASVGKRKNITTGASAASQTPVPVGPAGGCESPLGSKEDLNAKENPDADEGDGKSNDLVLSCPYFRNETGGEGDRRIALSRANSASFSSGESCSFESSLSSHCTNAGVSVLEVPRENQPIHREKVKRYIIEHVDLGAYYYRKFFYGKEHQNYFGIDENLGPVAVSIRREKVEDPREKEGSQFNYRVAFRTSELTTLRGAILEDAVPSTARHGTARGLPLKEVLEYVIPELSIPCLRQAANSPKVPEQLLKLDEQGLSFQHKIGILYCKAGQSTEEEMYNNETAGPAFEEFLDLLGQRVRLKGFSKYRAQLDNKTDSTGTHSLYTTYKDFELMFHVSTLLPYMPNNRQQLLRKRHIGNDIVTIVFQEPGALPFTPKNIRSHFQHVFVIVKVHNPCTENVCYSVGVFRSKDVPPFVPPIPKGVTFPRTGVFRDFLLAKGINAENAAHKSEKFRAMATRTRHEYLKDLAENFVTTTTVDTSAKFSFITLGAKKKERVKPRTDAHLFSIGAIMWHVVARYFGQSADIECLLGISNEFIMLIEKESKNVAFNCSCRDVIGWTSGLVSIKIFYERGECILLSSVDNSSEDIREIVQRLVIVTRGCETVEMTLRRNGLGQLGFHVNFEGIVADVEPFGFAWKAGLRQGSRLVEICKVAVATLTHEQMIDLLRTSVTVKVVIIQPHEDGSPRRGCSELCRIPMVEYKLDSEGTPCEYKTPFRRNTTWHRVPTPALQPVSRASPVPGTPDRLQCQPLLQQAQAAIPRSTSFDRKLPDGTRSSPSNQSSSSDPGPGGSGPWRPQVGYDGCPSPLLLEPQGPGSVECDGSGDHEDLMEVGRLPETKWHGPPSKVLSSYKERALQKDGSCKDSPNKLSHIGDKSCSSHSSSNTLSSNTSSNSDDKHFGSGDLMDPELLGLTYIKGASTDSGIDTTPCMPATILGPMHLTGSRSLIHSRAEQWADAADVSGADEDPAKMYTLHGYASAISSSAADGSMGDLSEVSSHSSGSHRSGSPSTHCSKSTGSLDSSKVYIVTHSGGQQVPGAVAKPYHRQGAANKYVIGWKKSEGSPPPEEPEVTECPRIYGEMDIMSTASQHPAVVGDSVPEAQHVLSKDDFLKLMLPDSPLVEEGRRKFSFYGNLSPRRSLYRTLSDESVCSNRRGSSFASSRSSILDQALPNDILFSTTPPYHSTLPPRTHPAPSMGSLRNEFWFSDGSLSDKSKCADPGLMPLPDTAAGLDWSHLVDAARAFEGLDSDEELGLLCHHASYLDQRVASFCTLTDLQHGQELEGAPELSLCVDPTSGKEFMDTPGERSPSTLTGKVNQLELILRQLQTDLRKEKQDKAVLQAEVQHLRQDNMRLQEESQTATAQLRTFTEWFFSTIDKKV

Tests used:
[1] = target: TrkB (endogenous, rat cerebellum) (rat (endogenous in cerebellum)) (UniProt Q63604); experiment: co-IP
GFP-Snapin = target: T1, GFP-Snapin (UniProt O95295); experiment: co-IP
T1 sequence: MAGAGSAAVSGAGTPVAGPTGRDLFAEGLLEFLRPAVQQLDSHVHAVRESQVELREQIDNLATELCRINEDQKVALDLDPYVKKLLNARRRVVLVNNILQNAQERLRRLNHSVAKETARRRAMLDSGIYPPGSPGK

Row | Substance | binding [1] | binding (GFP-Snapin)
1 | SIPA1L2 (endogenous, rat cerebellum) (from UniProt Q5JCS6 1-1722) | binds | –
2 | SIPA1L2-F638A-L641A-mCherry (from UniProt Q5JCS6 1-1722) | – | binds
3 | fl-SIPA1L2-mCherry (from UniProt Q5JCS6 1-1722) | – | binds
